{"sequences": {"note": "Protein sequences, listed by entry. Tags and fused reporters are not part of them. Lines headed by an entry give the natural chain unless they say otherwise; changes in a name come on top.", "UniProt Q9BX10": "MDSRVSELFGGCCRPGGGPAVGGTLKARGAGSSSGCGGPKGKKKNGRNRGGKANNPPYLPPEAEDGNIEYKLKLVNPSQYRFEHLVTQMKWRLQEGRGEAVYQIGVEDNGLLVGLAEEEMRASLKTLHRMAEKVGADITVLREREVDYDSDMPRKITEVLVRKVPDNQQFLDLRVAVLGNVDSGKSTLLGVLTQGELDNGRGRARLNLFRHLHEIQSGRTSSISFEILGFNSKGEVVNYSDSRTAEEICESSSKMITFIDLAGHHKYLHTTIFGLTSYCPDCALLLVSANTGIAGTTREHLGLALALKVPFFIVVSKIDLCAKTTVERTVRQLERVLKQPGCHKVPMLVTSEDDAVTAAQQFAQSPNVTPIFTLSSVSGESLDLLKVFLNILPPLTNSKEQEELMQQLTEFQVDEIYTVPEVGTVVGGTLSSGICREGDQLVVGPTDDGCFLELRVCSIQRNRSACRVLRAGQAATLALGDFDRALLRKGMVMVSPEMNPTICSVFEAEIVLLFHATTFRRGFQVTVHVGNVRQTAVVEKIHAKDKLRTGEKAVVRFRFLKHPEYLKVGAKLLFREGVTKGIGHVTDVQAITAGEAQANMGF", "UniProt Q8WUI4": "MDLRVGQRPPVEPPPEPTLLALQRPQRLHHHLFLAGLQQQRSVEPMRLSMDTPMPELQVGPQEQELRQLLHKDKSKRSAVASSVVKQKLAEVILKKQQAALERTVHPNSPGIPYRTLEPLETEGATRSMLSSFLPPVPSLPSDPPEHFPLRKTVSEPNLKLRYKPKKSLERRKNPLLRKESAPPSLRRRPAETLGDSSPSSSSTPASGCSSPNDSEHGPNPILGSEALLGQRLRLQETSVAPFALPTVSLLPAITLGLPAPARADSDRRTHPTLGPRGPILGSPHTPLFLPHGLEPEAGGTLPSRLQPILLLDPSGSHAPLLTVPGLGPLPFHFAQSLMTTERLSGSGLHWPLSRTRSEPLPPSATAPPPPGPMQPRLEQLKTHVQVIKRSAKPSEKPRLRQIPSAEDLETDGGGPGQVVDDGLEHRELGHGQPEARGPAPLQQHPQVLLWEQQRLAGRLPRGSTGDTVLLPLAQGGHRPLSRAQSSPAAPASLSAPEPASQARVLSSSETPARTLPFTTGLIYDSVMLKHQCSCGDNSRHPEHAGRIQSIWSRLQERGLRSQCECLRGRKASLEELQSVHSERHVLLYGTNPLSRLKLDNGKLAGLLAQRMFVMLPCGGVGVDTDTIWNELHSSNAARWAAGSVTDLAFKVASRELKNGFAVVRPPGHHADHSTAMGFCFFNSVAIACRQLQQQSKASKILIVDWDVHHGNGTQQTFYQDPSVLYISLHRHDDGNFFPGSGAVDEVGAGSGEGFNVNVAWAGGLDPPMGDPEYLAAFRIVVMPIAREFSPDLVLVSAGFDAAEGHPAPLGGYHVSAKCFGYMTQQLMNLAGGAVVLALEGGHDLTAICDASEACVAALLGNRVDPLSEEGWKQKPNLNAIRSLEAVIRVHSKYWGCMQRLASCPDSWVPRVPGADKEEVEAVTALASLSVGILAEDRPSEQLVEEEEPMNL", "UniProt Q03013": "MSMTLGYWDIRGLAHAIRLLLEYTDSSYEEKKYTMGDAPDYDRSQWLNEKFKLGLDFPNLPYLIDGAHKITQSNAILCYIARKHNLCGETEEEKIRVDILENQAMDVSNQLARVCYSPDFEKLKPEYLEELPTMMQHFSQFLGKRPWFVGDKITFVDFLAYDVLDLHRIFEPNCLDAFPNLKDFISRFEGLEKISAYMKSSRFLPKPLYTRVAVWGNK", "UniProt Q9BXW7": "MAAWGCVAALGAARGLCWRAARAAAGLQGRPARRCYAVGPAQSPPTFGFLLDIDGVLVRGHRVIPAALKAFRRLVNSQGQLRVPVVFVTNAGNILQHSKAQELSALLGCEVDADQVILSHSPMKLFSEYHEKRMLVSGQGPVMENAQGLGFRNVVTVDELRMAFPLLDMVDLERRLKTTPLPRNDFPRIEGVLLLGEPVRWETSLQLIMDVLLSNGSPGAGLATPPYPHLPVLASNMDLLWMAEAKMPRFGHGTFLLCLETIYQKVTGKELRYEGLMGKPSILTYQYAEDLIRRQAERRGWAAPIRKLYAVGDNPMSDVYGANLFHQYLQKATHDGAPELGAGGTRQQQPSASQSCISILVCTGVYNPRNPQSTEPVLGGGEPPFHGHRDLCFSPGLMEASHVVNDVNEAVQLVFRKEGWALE", "UniProt O15488": "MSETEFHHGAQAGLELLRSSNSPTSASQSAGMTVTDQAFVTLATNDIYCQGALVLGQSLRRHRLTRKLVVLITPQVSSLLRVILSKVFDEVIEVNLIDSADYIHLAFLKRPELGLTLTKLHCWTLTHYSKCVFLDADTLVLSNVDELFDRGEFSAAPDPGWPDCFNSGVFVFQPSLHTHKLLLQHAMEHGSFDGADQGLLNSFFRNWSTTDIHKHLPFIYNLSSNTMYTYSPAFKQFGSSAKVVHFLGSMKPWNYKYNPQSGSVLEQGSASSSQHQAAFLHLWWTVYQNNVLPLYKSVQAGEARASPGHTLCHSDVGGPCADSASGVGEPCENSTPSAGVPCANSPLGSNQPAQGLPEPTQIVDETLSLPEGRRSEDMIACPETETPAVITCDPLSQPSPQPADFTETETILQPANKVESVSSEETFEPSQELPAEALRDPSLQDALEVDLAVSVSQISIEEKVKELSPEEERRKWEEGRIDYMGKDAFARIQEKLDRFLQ", "UniProt Q7Z4V5": "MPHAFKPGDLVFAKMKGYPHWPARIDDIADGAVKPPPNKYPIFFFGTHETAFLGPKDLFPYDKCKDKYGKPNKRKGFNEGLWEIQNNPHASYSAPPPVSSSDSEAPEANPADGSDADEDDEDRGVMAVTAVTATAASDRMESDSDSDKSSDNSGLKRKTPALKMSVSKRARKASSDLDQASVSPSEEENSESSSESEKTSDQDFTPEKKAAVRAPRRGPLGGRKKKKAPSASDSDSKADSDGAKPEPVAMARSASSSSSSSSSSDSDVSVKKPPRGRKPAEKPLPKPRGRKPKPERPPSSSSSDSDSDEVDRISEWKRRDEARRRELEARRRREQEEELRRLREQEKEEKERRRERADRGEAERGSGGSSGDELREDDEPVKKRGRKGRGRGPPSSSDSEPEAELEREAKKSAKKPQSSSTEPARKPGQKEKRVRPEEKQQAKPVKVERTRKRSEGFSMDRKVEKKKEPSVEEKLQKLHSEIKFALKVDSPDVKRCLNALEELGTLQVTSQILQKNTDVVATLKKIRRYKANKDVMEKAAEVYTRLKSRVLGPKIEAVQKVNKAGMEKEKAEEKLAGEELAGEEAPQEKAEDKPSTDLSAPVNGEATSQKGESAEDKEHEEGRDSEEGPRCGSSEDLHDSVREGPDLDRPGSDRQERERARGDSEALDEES", "UniProt P28161": "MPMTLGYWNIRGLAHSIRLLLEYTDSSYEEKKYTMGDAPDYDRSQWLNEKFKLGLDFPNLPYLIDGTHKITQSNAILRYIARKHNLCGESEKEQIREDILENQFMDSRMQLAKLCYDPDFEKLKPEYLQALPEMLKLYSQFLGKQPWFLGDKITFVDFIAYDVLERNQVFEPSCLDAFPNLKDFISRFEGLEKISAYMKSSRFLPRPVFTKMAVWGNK", "UniProt Q8WW33": "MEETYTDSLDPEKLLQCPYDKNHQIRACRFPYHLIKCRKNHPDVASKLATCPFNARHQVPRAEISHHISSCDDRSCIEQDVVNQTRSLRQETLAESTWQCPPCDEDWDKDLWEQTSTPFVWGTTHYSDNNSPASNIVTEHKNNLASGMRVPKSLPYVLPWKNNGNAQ", "UniProt Q92522": "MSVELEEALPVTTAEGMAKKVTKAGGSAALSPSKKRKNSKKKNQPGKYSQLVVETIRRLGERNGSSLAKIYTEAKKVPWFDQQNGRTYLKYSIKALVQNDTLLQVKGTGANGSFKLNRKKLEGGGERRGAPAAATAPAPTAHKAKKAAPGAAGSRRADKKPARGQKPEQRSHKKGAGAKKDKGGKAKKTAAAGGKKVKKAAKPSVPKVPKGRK", "UniProt Q8N442": "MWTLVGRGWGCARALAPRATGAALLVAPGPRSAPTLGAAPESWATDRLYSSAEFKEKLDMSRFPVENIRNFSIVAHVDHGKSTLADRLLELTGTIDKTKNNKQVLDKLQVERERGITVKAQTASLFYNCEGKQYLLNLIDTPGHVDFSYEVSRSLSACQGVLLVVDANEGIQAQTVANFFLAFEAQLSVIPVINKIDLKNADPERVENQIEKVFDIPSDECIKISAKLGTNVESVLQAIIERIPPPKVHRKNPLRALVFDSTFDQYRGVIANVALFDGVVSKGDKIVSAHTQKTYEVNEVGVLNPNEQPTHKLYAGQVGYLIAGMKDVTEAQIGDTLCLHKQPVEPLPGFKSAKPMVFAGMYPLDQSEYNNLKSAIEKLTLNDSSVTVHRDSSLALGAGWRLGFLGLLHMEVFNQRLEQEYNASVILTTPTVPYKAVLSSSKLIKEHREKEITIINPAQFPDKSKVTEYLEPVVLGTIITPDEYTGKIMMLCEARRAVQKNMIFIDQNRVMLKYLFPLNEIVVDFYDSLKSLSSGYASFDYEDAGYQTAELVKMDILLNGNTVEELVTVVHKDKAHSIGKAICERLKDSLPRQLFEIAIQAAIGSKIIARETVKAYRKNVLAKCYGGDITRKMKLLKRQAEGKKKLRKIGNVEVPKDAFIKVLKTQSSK", "UniProt P21266": "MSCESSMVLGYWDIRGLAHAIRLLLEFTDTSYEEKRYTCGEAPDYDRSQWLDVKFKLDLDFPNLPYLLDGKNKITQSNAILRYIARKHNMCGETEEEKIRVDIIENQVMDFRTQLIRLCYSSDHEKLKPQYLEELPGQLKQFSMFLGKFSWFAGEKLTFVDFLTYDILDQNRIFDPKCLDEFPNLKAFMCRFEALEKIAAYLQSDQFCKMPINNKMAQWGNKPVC", "UniProt P48637": "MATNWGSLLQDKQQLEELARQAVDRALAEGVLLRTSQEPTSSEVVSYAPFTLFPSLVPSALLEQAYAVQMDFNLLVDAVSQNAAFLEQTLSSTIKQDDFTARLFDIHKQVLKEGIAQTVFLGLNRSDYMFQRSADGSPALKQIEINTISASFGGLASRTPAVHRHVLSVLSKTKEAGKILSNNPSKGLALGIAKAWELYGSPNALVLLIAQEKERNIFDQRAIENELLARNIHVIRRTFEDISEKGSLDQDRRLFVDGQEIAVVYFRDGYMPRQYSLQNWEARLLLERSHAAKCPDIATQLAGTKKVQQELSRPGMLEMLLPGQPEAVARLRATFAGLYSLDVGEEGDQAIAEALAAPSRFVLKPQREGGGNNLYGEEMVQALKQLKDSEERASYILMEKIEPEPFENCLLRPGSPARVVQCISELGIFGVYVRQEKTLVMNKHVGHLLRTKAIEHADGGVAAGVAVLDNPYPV", "UniProt P02042": "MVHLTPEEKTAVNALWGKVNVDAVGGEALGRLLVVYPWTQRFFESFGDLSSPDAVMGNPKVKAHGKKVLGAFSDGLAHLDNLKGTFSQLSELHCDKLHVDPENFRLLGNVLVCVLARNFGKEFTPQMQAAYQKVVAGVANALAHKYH", "UniProt P56524": "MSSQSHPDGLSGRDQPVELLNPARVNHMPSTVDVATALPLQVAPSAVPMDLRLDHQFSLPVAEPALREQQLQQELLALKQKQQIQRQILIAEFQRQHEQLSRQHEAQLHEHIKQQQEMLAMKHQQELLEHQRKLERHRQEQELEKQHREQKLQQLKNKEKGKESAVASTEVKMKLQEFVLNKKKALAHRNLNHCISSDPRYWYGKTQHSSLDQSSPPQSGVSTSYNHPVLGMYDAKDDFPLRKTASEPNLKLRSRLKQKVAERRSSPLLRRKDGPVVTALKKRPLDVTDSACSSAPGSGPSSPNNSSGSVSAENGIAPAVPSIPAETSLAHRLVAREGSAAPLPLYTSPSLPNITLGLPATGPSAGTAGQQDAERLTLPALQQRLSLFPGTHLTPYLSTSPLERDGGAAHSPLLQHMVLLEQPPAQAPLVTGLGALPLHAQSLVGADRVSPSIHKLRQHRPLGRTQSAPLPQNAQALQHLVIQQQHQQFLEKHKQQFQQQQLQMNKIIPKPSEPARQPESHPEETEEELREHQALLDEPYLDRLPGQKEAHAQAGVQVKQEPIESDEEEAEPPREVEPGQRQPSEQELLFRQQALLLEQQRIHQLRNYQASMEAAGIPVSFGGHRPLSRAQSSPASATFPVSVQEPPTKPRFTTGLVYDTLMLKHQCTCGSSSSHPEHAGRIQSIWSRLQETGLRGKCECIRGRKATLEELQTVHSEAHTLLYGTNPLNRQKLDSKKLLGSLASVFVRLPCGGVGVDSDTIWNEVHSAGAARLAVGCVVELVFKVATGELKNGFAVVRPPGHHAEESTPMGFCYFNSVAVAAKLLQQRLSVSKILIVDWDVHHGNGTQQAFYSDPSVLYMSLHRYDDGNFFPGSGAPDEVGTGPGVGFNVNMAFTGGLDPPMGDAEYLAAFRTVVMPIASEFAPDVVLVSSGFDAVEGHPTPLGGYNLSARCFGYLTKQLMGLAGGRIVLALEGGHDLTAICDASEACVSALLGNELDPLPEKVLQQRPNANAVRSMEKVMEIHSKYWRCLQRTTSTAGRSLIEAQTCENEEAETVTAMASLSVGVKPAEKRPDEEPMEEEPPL"}, "source": "the supplement of paper PMC10849652", "note": "Some of the results follow.", "data": [{"compound": "CC1=C(C(CC(=O)N1)C2=CC=C(C=C2)C(F)(F)F)C(=O)NC3=C(C=C4C(=C3)C=NN4)F", "assay": "log2 fold change, soluble protein after heating vs DMSO (PISA); higher = thermal stabilisation; K562 lysate, 10 uM; active = over 0.2 and 3.5 SD of the protein, either way, in both replicates (recomputed)", "in_short": "(§1)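 A 30 min treatment with 10 μM compound was applied to crude K562 extract at 1 mg/mL protein in PBS pH 7.4 with 1 mM MgCl2. Heating for 3 min spanned 48°C-58°C, after which aliquots were pooled, adjusted to 0.5% NP-40 at 4°C and spun at 21,000xg for 90 min. TMTpro 16plex LC-MS/MS of the supernatant, with channel sums equalised, gave values recorded as log-two fold change in thermal stability against solvent controls, from duplicates.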", "values": [{"target": "HDAC2 (UniProt Q92769)", "log2 fold change": "inactive: -0.013"}, {"target": "GSTZ1 (UniProt G3V4T6)", "log2 fold change": "inactive: 0.01"}, {"target": "GTF2F1 (UniProt P35269)", "log2 fold change": "inactive: 0.014"}, {"target": "HBE1 (UniProt P02100)", "log2 fold change": "inactive: -0.047"}, {"target": "HADHA (UniProt P40939)", "log2 fold change": "inactive: -0.031"}, {"target": "GTPBP1 (UniProt O00178)", "log2 fold change": "inactive: 0.002"}, {"target": "GTF2H1 (UniProt P32780)", "log2 fold change": "inactive: 0.036"}]}, {"compound": "CC1=C(C2=C(C=C1)C(=O)C3=CC=CC=C3N2CCCN)C", "assay": "log2 fold change, soluble protein after heating vs DMSO (PISA); higher = thermal stabilisation; K562 lysate, 10 uM; active = over 0.2 and 3.5 SD of the protein, either way, in both replicates (recomputed)", "in_short": "as §1", "values": [{"target": "GYPA (UniProt P02724)", "log2 fold change": "inactive: -0.085"}, {"target": "GTPBP2 (UniProt Q9BX10)", "log2 fold change": "inactive: -0.018"}, {"target": "HDAC7 isoform 5 (UniProt Q8WUI4)", "log2 fold change": "inactive: 0.034"}, {"target": "H1-2 (UniProt P16403)", "log2 fold change": "inactive: 0.06"}, {"target": "GRB10 (UniProt Q13322)", "log2 fold change": "inactive: -0.015"}, {"target": "GSTM4 (UniProt Q03013)", "log2 fold change": "inactive: 0.037"}, {"target": "HDHD5 (UniProt Q9BXW7)", "log2 fold change": "inactive: -0.023"}, {"target": "GYG2 (UniProt O15488)", "log2 fold change": "inactive: -0.062"}, {"target": "HAUS7 isoform 2 (UniProt Q99871)", "log2 fold change": "inactive: 0.028"}, {"target": "HDGFL2 isoform 2 (UniProt Q7Z4V5)", "log2 fold change": "inactive: -0.026"}, {"target": "GSTM2 (UniProt P28161)", "log2 fold change": "inactive: -0.033"}, {"target": "GTSF1 (UniProt Q8WW33)", "log2 fold change": "inactive: 0.005"}, {"target": "H1FX (UniProt Q92522)", "log2 fold change": "inactive: 0.001"}, {"target": "GUF1 (UniProt Q8N442)", "log2 fold change": "inactive: -0.018"}, {"target": "GTF3C6 (UniProt Q969F1)", "log2 fold change": "inactive: -0.009"}, {"target": "GTF3C3 (UniProt Q9Y5Q9)", "log2 fold change": "inactive: -0.112"}, {"target": "GSTM3 (UniProt P21266)", "log2 fold change": "inactive: -0.002"}, {"target": "HAT1 (UniProt O14929)", "log2 fold change": "inactive: -0.004"}, {"target": "GRSF1 (UniProt Q12849)", "log2 fold change": "inactive: -0.025"}, {"target": "GSS (UniProt P48637)", "log2 fold change": "inactive: -0.002"}, {"target": "HBD (UniProt P02042)", "log2 fold change": "inactive: -0.006"}, {"target": "HDAC4 (UniProt P56524)", "log2 fold change": "inactive: -0.014"}, {"target": "GTF3A (UniProt Q92664)", "log2 fold change": "inactive: -0.017"}, {"target": "GTPBP4 (UniProt Q9BZE4)", "log2 fold change": "inactive: -0.01"}, {"target": "GRHPR (UniProt Q9UBQ7)", "log2 fold change": "inactive: -0.001"}, {"target": "HDAC2 (UniProt Q92769)", "log2 fold change": "inactive: -0.01"}, {"target": "GSTZ1 (UniProt G3V4T6)", "log2 fold change": "inactive: 0.036"}, {"target": "GTF2F1 (UniProt P35269)", "log2 fold change": "inactive: 0.004"}, {"target": "HBE1 (UniProt P02100)", "log2 fold change": "inactive: 0.006"}, {"target": "HADHA (UniProt P40939)", "log2 fold change": "inactive: -0.01"}, {"target": "GTPBP1 (UniProt O00178)", "log2 fold change": "inactive: -0.039"}, {"target": "GTF2H1 (UniProt P32780)", "log2 fold change": "inactive: -0.022"}]}]}
